For the experiment, the target named is KSHV ORF57 N-terminally fused to mini-TurboID (Kaposi sarcoma-associated herpesvirus (KSHV), BAC16) (UniProt Q2HR75). Briefly: proximity labelling; mTID-57 PAN WT and PAN MRE mutant iSLK cells reactivated (doxycycline, TPA), biotin; biotinylated proteins identified by mass spectrometry; enrichment compared between PAN RNA WT and MRE mutant.

Amino acid sequences for entries named in this document (tags omitted).
UniProt Q2HR75: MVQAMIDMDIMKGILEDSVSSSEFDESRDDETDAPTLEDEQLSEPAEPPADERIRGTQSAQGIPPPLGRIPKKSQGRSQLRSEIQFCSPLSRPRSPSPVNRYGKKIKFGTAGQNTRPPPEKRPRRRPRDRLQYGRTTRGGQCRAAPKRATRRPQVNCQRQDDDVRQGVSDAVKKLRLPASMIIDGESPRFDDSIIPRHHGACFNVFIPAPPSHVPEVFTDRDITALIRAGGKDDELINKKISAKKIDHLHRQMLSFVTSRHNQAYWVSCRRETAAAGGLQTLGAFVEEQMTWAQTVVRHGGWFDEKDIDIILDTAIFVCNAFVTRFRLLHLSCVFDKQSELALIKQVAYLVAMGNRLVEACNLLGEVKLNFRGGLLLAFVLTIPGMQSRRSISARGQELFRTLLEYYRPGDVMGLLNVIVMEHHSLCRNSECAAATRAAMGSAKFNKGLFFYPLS
UniProt Q13123: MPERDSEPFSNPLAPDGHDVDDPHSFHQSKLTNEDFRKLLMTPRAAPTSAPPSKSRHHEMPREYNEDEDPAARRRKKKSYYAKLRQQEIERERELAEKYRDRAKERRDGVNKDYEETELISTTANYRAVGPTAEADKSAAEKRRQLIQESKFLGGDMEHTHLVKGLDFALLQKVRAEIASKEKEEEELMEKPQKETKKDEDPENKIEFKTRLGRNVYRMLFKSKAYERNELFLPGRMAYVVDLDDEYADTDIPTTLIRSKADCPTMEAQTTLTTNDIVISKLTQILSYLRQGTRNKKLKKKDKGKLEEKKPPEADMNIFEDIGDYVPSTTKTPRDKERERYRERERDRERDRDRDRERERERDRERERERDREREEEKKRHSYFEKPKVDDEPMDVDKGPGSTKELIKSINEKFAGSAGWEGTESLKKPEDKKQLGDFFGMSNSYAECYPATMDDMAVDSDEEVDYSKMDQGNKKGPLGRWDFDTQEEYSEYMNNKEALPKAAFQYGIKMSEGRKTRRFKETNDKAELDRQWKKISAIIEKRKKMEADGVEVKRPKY
UniProt Q9H361: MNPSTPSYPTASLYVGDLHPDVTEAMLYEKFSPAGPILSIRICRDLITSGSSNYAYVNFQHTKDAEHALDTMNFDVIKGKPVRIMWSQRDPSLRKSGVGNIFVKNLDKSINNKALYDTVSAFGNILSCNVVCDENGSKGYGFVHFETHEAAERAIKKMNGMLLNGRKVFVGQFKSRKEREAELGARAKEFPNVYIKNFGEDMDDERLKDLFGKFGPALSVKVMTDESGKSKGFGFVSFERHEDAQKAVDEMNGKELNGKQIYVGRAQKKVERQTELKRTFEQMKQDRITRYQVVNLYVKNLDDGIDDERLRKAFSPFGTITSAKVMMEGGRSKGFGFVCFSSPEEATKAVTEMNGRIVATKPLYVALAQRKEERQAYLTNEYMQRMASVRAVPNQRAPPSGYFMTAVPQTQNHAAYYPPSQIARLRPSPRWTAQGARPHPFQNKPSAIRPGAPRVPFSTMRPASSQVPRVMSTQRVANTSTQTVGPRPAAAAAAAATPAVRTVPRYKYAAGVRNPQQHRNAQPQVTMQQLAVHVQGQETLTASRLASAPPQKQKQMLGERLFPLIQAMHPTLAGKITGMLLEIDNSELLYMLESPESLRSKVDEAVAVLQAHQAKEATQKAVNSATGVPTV

The text below walks through data of article PMC9153692.

Results are given in words; binding and its absence hold for the method and conditions named. Binding seen in cells or lysates may run through a third protein. Here binding means that the protein was enriched with, or labelled near, the bait; the list need not be complete.

For IK (from UniProt Q13123 1-557), the binding entry was “binds”. In the case of PABPC3 (from UniProt Q9H361 1-631), the binding entry was “binds”.
